Experimental findings from US20260028417A1 (SICHUAN KELUN BIOTECH BIOPHARMACEUTICAL, published 2026) are described below.

Results are given in words; binding and its absence hold for the method and conditions named. A result given as binding can be weak or reduced; the word gives no strength.

For the assay, the target named is monkey HER3 protein (extracellular sequence with six histidines at the C-terminal) (monkey). The assay can be described thus: ELISA, coated monkey HER3 protein. (In general: In an ELISA, binding on a coated surface is turned into a signal by an enzyme label.)

B1: 47A3E3 (anti-human HER3 chimeric antibody) (antibody, V domains shown)
VH: EVQLQESGPGLVKPSQTLSLTCAISGDSVSSSQSTWNWIRQSPSRGLEWLGRTFYRSRWYNDYALSMKSRITINPDTSKNQFSLQLNPVTPEDTAVYYCARDTYYYGSGGFDYWGQGSRVTVSS
VL: DIQMTQSPSTLSASVGDRVTITCRASQSLSRWLAWYQQKPEKAPKLLIYKASSLESGVPSRFSGSGSGTEFTLTISTLQPDDFATYYCQQYKNYYSFGQGTKLEIK
On to B1, for which the binding result is listed as “binds”.

B2: 47A3E3-hIgG (anti-human HER3 fully human antibody) (antibody, V domains shown)
VH: B1 VH
VL: DIQMTQSPSTLSASVGDRVTITCRASQSLSRWLAWYQQKPEKAPKLLIYKASSLESGVPSRFSGSGSGTEFTLTISTLQPDDFATYYCQQYKNYYSFGQGTKLEIKR
notes: Human IgG1/kappa, expressed in CHO-S cells; also called 47A3E3-hIgG-Bio (biotin-labelled)
In the case of B2, the binding entry is recorded as “binds”.

B3: 22B6D2 (anti-human HER3 chimeric antibody) (antibody, V domains shown)
VH: EVHLVESGGGVVQPGRSLRLSCATSGFTFRSYGMHWVRQAPGKGLEWVAVIWYDGSNKYYADSVKGRFTISRDISKNTLYLQMNSLTAEDTAVYYCARYYYDSNGYYDAFDIWGQGTMVTVSS
VL: DIQLTQSPSFLSASVGDRVTITCRASQGISNYLAWYQQKPGKAPKLLIFAASTLQSGVPSRFSGSGSGAEFTLTISSLEPEDFATYYCQQLNSYPITFGQGTRLEIK
notes: detected with anti-Rat IgG
As for B3, the binding result is recorded as “binds”.

B4: 22B6D2-hIgG (anti-human HER3 fully human antibody) (antibody, V domains shown)
VH: B3 VH
VL: DIQLTQSPSFLSASVGDRVTITCRASQGISNYLAWYQQKPGKAPKLLIFAASTLQSGVPSRFSGSGSGAEFTLTISSLEPEDFATYYCQQLNSYPITFGQGTRLEIKR
notes: Human IgG1/kappa, expressed in CHO-S cells; also called 22B6D2-hIgG-Bio (biotin-labelled)
As for B4, the binding entry was “binds”.

B5: 44A4A11 (anti-human HER3 chimeric antibody) (antibody, V domains shown)
VH: EVQLLESGGGLVQPGGSLRLSCAASGFTFSSYAMNWVRQAPGKGLEWVSSISDSGGSTYYADSVKGRFTISRDNSKNTLYLQMNSLRAEDTAVYYCAKDGGISMVRGVIIEEGYFDLWGRGTLVTSPQ
VL: DIQLTQSPSFLSASVGDRVTITCRASQGISSYLAWYQQKPGKAPKLLIYVVSTLQSGVPSRFSGSGSGTEFTLTISSLQPEDFATYYCHQLNSYPLTFGGGTKVEIK
On to B5, for which the binding result is “binds”.

B6: 100H7D3 (anti-human HER3 chimeric antibody) (antibody, V domains shown)
VH: EVQLVESGGGVVLPGRSLRLSCAASGFTFSRNAMHWVRQAPGKGLEWVAVIWHDGSNKYYGDSVKGRFTISRDNSKNTLYLQMDSLTAEDTAVYYCARDRGASDFRGQGTLVTVSS
VL: DIQMTQSPSTLSASVGDRVTITCRASQSINNWLAWYQQKPEKAPKLLIYKASSLESGVPSRFSGSGSGTEFTLTISSLQPDDFATYYCQQYNSYSLTFGGGTKVEIK
Consider B6, for which the binding result is “binds”.

B7: 100H7D3-hIgG (anti-human HER3 fully human antibody) (antibody, V domains shown)
VH: B6 VH
VL: DIQMTQSPSTLSASVGDRVTITCRASQSINNWLAWYQQKPEKAPKLLIYKASSLESGVPSRFSGSGSGTEFTLTISSLQPDDFATYYCQQYNSYSLTFGGGTKVEIKR
notes: Human IgG1/kappa, expressed in CHO-S cells; also called 100H7D3-hIgG-Bio (biotin-labelled)
B7: the binding entry is “binds”.
